Assay results taken from the supplement of paper PMC12819154, “High-throughput peptide-centric local stability assay extends protein–ligand identification to membrane proteins, tissues and bacteria” (Nature Structural & Molecular Biology, 2025).
The list shows a part of the results. Most values lie at the level of the controls, where differences are scatter.

Protein sequences, listed by entry. Tags and fused reporters are not part of them. Lines headed by an entry give the natural chain unless they say otherwise; changes in a name come on top.
UniProt Q9CQR4: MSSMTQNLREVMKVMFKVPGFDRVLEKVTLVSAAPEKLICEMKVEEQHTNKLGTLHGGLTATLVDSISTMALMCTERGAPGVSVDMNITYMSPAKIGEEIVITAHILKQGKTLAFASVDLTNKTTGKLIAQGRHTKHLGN
UniProt Q9CQR6: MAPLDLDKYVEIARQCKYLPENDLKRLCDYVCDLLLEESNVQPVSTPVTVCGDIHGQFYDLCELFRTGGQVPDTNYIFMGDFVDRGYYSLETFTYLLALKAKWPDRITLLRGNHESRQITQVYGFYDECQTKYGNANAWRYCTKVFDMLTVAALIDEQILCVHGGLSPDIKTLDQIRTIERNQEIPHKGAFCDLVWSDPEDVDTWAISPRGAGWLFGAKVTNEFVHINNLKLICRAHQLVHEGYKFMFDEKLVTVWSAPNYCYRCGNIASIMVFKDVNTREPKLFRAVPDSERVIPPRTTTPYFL
UniProt Q9CQF4: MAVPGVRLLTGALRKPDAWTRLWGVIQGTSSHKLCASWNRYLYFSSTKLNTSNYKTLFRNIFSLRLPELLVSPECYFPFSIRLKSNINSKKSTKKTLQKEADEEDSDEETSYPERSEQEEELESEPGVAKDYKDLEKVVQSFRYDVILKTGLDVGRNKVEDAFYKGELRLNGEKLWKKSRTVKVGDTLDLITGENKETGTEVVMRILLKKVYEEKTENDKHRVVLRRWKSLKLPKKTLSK
UniProt Q99K99: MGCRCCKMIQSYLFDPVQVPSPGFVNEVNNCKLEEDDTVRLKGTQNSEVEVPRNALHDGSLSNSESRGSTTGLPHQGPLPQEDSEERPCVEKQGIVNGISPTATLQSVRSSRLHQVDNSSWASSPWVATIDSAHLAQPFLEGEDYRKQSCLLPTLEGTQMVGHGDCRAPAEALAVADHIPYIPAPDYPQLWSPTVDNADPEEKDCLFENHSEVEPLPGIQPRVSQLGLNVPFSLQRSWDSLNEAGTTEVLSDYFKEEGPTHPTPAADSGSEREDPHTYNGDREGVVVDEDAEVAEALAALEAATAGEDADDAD
UniProt Q9CQ10: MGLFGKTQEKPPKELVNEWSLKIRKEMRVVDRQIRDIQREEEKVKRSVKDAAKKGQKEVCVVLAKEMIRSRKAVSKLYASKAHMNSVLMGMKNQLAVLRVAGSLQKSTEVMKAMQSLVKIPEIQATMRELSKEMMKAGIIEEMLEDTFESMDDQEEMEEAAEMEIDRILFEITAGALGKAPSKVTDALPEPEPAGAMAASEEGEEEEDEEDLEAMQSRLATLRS
UniProt Q9CQ92: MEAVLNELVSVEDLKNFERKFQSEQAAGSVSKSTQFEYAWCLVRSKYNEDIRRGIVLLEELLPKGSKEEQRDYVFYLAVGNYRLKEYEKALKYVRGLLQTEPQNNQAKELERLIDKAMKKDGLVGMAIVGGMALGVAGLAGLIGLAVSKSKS
UniProt Q99LD8: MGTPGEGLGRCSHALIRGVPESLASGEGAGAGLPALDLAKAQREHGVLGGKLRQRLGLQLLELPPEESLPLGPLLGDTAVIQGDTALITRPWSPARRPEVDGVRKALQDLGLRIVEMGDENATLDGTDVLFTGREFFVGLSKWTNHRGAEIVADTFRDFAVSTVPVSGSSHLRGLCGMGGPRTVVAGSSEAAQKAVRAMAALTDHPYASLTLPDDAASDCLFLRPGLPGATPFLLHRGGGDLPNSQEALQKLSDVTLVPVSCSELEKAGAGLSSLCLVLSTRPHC
UniProt Q9CWU6: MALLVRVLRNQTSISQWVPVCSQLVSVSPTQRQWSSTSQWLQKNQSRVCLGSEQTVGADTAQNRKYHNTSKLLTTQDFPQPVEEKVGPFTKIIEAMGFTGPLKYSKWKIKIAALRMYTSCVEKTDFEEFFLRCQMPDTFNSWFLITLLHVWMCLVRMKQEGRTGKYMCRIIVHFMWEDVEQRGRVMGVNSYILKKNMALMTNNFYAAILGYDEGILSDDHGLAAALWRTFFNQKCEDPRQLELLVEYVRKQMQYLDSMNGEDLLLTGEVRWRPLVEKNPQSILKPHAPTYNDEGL
UniProt Q9CQ86: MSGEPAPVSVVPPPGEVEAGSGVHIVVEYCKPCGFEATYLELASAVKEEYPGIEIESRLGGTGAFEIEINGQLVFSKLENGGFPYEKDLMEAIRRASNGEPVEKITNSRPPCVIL
UniProt Q9CQC7: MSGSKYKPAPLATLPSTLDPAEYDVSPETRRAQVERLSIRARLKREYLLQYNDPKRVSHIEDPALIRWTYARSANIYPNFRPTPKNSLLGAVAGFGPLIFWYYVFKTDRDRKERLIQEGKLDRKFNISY
UniProt Q99LP6: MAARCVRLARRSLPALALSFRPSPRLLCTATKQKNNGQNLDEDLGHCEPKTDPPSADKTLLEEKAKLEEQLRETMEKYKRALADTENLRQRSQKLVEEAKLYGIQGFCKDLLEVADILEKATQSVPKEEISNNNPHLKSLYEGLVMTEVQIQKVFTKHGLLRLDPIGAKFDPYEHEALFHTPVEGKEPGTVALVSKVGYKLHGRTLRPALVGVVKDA
UniProt Q9CQA3: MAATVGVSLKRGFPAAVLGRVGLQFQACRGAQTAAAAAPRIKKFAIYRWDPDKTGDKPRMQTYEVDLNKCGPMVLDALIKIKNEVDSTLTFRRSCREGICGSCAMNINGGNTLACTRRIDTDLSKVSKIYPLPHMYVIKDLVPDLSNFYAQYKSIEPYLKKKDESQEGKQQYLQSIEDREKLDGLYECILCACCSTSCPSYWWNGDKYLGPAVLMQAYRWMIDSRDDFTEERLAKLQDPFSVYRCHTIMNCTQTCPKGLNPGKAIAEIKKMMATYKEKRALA
UniProt Q9CQE8: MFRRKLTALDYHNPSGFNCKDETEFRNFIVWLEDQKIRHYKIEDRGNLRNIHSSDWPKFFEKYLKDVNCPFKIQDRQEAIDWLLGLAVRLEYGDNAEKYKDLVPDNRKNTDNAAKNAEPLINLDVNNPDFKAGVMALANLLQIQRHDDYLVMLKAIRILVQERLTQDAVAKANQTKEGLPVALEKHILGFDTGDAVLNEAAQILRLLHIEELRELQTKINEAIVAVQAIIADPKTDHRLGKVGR
UniProt Q9CW03: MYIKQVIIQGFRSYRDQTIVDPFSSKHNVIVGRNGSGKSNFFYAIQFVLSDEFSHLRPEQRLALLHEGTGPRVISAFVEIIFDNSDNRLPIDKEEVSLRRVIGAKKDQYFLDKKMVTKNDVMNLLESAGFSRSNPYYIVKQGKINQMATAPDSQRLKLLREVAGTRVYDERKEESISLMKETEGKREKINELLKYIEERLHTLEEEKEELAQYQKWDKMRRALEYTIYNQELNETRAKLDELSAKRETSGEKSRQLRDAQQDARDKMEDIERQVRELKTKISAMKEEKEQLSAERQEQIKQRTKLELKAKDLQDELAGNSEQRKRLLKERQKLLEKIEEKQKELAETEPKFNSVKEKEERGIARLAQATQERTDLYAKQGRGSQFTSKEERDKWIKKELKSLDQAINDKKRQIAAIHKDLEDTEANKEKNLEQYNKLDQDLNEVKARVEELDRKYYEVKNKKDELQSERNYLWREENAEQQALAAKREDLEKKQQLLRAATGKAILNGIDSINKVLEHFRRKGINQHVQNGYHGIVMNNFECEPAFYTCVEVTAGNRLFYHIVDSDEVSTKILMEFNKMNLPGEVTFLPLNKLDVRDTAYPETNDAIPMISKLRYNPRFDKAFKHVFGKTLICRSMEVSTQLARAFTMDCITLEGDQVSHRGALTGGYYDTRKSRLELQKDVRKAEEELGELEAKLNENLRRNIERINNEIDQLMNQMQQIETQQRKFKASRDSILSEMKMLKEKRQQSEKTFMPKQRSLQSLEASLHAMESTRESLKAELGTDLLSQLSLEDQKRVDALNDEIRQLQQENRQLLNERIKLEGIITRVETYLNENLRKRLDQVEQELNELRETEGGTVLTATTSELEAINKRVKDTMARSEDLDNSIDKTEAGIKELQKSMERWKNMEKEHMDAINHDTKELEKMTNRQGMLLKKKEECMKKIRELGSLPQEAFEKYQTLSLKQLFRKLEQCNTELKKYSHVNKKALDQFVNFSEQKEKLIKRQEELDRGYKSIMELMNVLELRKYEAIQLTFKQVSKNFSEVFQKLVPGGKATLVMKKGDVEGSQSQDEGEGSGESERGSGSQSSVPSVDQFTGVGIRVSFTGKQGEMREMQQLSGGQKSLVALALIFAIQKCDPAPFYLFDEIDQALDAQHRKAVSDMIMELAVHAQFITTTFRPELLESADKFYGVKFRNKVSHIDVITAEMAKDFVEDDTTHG
UniProt Q9CSU0: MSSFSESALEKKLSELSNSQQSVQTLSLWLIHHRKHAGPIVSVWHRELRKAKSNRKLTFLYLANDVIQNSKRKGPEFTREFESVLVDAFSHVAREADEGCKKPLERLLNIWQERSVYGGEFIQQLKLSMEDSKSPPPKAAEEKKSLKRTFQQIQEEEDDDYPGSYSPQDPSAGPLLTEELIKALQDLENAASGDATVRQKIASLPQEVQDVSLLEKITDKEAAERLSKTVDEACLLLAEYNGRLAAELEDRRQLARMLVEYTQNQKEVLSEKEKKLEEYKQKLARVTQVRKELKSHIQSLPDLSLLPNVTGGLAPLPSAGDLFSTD
UniProt Q99JW4, whole entry: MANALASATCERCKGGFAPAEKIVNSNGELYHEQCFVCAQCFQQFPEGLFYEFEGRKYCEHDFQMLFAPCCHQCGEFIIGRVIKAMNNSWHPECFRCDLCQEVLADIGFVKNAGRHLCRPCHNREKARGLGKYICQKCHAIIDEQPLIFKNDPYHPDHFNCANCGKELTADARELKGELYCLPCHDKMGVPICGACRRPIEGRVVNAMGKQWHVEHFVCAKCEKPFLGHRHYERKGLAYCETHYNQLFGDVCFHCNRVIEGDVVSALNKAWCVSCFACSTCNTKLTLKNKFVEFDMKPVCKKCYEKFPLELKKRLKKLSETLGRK
UniProt Q9CQV7: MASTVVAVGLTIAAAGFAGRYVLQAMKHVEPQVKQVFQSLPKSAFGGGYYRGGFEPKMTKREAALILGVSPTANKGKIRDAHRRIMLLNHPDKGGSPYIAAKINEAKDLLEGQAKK
UniProt Q99K95: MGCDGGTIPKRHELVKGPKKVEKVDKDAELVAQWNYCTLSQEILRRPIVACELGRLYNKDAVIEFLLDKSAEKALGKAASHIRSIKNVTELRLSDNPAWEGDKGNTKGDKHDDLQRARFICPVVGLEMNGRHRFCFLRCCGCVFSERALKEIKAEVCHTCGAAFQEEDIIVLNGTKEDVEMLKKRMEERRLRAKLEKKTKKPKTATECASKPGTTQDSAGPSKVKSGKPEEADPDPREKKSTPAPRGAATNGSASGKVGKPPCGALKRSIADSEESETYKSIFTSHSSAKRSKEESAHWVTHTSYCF
UniProt Q9CWE0: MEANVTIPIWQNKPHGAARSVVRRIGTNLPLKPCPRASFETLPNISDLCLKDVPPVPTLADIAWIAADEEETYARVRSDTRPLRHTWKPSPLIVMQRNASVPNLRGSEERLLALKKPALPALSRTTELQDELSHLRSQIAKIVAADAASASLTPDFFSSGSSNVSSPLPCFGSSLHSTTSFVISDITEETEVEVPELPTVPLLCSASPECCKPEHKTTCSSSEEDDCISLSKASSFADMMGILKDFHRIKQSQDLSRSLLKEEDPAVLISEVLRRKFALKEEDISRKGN
UniProt Q9CQW1: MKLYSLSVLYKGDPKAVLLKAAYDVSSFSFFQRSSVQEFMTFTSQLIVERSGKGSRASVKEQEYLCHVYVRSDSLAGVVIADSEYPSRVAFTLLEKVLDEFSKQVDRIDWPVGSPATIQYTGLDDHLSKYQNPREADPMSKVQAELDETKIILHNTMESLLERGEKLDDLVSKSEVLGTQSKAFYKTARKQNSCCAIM
UniProt Q9CPU2: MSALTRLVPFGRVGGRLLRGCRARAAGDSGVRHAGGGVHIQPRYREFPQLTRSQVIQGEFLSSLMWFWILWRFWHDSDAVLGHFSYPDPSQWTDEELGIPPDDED
UniProt Q9CR00: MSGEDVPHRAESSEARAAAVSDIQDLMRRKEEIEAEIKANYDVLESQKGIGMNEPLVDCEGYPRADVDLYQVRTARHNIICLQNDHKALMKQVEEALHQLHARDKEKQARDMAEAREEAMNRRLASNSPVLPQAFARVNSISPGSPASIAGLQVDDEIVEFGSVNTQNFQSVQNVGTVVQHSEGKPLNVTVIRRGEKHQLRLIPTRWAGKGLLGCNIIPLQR
UniProt Q9CQE7: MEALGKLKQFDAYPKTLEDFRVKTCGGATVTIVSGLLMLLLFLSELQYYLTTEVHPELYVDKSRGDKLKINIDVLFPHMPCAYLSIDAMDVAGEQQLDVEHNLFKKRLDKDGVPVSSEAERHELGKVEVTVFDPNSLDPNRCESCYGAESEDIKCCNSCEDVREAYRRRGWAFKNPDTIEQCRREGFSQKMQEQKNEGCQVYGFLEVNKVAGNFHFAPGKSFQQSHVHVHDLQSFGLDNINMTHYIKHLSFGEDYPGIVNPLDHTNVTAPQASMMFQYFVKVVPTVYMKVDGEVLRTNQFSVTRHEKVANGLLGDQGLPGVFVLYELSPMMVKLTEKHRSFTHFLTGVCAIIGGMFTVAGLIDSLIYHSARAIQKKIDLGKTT
UniProt Q9CWB7: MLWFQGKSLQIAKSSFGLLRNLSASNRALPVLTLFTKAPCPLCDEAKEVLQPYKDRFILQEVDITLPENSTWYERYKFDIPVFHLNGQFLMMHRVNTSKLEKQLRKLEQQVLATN

Compound: CN[C@@H]1C[C@H]2O[C@@](C)([C@@H]1OC)n1c3ccccc3c3c4c(c5c6ccccc6n2c5c31)C(=O)NC4 [staurosporine]
Assay: log2 fold change of pooled soluble protein (PISA), ligand vs vehicle (log2 ratio); higher = more thermally stabilized
Conditions: ligand concentration: 20 uM; assay format: PISA pool 52.9/55.5/58.6 C

Target | log2 fold change of pooled soluble protein
UniProt Q9CQR4 | -0.0378
UniProt Q9CQR6 | 0.297
UniProt Q99MN1 | -0.0905
UniProt Q99MR3 | -0.152
UniProt Q9CQF4 | 0.401
UniProt Q99K99 | -0.00368
UniProt Q9CRB3 | 0.0584
UniProt Q9CQ10 | 0.00952
UniProt Q9CQ92 | -0.263
UniProt Q9CWP6 | -0.0181
UniProt Q9CQR2 | -0.0561
UniProt Q99LD8 | -0.0349
UniProt Q9CWU6 | 0.119
UniProt Q9CQ86 | 0.133
UniProt Q9CQC7 | -0.0696
UniProt Q99LP6 | 0.0268
UniProt Q9CR20 | 0.0603
UniProt Q9CQA3 | -0.00441
UniProt Q9CQE8 | -0.0711

Looked up one by one from the entries so far:
Target | log2 fold change of pooled soluble protein
UniProt Q9CWP6 | -0.0181
UniProt Q9CR20 | 0.0603

Later entries.

Target | log2 fold change of pooled soluble protein
UniProt Q9CQ75 | -0.214
UniProt Q9CW03 | -0.115
UniProt Q9CSU0 | 0.0148
UniProt Q99P27 | -0.026
UniProt Q99JW4 | 0.00357
UniProt Q9CQV7 | -0.109
UniProt Q99K95 | -0.00192
UniProt Q9CWE0 | 0.0842
UniProt Q99LJ0 | 0.0373
UniProt Q9CQW1 | -0.0841
UniProt Q9CPW2 | 0.206
UniProt Q9CPU2 | -0.0257
UniProt Q99K30 | 0.0487
UniProt Q9CR00 | 0.000508
UniProt Q99JY9 | 0.00727
UniProt Q9CQE7 | -0.155
UniProt Q9CPZ8 | -0.0495
UniProt Q9CWB7 | 0.0467
